The text below walks through data of publication doi:10.1101/2021.06.20.449167 (bioRxiv, 2021).

Results are given in words; binding and its absence hold for the method and conditions named. For part of these data: Binding calls can cover weak binding; strength is not graded here. For part of these data: Where a sequence is shown, tags or fusion partners need not be part of it. For part of these data: Binding seen in cells or lysates may run through a third protein.

The labels stand for the following.
B1: His6-Fy-5 (Gatd1) (natural protein, human, UniProt Q8NB37 1-220, looked up)
chain: MASERLPNRPACLLVASGAAEGVSAQSFLHCFTMASTAFNLQVATPGGKAMEFVDVTESNARWVQDFRLKAYASPAKLESIDGARYHALLIPSCPGALTDLASSGSLARILQHFHSESKPICAVGHGVAALCCATNEDRSWVFDSYSLTGPSVCELVRAPGFARLPLVVEDFVKDSGACFSASEPDAVHVVLDRHLVTGQNASSTVPAVQNLLFLCGSRK
B2: Fy-4 (Cryzl1), in vitro translated (protein, UniProt O95825 1-349)
chain: MKGLYFQQSSTDEEITFVFQEKEDLPVTEDNFVKLQVKACALSQINTKLLAEMKMKKDLFPVGREIAGIVLDVGSKVSFFQPDDEVVGILPLDSEDPGLCEVVRVHEHYLVHKPEKVTWTEAAGSIRDGVRAYTALHYLSHLSPGKSVLIMDGASAFGTIAIQLAHHRGAKVISTACSLEDKQCLERFRPPIARVIDVSNGKVHVAESCLEETGGLGVDIVLDAGVRLYSKDDEPAVKLQLLPHKHDIITLLGVGGHWVTTEENLQLDPPDSHCLFLKGATLAFLNDEVWNLSNVQQGKYLCILKDVMEKLSTGVFRPQLDEPIPLYEAKVSMEAVQKNQGRKKQVVQF
modifications: [35S]-methionine-labelled
B3: Fy-5 (Gatd1), in vitro translated (protein, UniProt Q8NB37 1-220)
chain: B1 chain
modifications: [35S]-methionine-labelled
B4: Fy-3 (C12orf4), in vitro translated (protein, UniProt Q9NQ89 1-552)
chain: MKKNRERFCNREREFVYKFKVGSQCLELRVPLKFPVQENASHLHGRLMLLHSLPCFIEKDLKEALTQFIEEESLSDYDRDAEASLAAVKSGEVDLHQLASTWAKAYAETTLEHARPEEPSWDEDFADVYHDLIHSPASETLLNLEHNYFVSISELIGERDVELKKLRERQGIEMEKVMQELGKSLTDQDVNSLAAQHFESQQDLENKWSNELKQSTAIQKQEYQEWVIKLHQDLKNPNNSSLSEEIKVQPSQFRESVEAIGRIYEEQRKLEESFTIHLGAQLKTMHNLRLLRADMLDFCKHKRNHRSGVKLHRLQTALSLYSTSLCGLVLLVDNRINSYSGIKRDFATVCQECTDFHFPRIEEQLEVVQQVVLYARTQRRSKLKESLDSGNQNGGNDDKTKNAERNYLNVLPGEFYITRHSNLSEIHVAFHLCVDDHVKSGNITARDPAIMGLRNILKVCCTHDITTISIPLLLVHDMSEEMTIPWCLRRAELVFKCVKGFMMEMASWDGGISRTVQFLVPQSISEEMFYQLSNMLPQIFRVSSTLTLTSKH
modifications: [35S]-methionine-labelled
B5: Fy-2 (Ppp1r21), in vitro translated (protein, UniProt Q6ZMI0 1-780)
chain: MASAELQGKYQKLAQEYSKLRAQNQVLKKGVVDEQANSAALKEQLKMKDQSLRKLQQEMDSLTFRNLQLAKRVELLQDELALSEPRGKKNKKSGESSSQLSQEQKSVFDEDLQKKIEENERLHIQFFEADEQHKHVEAELRSRLATLETEAAQHQAVVDGLTRKYMETIEKLQNDKAKLEVKSQTLEKEAKECRLRTEECQLQLKTLHEDLSGRLEESLSIINEKVPFNDTKYSQYNALNVPLHNRRHQLKMRDIAGQALAFVQDLVTALLNFHTYTEQRIQIFPVDSAIDTISPLNQKFSQYLHENASYVRPLEEGMLHLFESITEDTVTVLETTVKLKTFSEHLTSYICFLRKILPYQLKSLEEECESSLCTSALRARNLELSQDMKKMTAVFEKLQTYIALLALPSTEPDGLLRTNYSSVLTNVGAALHGFHDVMKDISKHYSQKAAIEHELPTATQKLITTNDCILSSVVALTNGAGKIASFFSNNLDYFIASLSYGPKAASGFISPLSAECMLQYKKKAAAYMKSLRKPLLESVPYEEALANRRILLSSTESREGLAQQVQQSLEKISKLEQEKEHWMLEAQLAKIKLEKENQRIADKLKNTGSAQLVGLAQENAAVSNTAGQDEATAKAVLEPIQSTSLIGTLTRTSDSEVPDVESREDLIKNHYMARIVELTSQLQLADSKSVHFYAECRALSKRLALAEKSKEALTEEMKLASQNISRLQDELTTTKRSYEDQLSMMSDHLCSMNETLSKQREEIDTLKMSSKGNSKKNKSR
modifications: [35S]-methionine-labelled
B6: Cryzl1 (Fy-4) from bovine brain cytosol (protein, UniProt Q59A28 1-349)
chain: MKGLYFQQSSTNEEITFVFQERENLPVTEDNYVKLQVKACALSQINTKLLAEMKMEKEFFPVGREVAGIVLDVGSKVSFFQPDDEVVGILPLDSEDPGLCEAVRVHEHYLVHKPEKVTWTEAAGTIRDGLRVYTALHYLSHLSPGKSVLIMDGASALGTIAIQLAHHRGAKVISTACSLEDKQFLERFRPPIARVIDVSNGKAHVAESCLEETGGLGVDIVLDAGVRLYSKDDEPAEKLQLLPHKHDIITLLGVGGHWVTTEENLQLDPPDSHCLFLKGAAVAFLNDEVWNLSNVQQGKYLCILKDVMEKLSTGVFRPQLDEPIPLYEAKVTMEVVQKNQGRKKQVVQF

The first assay addresses T1, His6-Fy-1 (Tbck), subunit of the reconstituted FERRY complex (human) (UniProt Q8TEA7).
T1 sequence: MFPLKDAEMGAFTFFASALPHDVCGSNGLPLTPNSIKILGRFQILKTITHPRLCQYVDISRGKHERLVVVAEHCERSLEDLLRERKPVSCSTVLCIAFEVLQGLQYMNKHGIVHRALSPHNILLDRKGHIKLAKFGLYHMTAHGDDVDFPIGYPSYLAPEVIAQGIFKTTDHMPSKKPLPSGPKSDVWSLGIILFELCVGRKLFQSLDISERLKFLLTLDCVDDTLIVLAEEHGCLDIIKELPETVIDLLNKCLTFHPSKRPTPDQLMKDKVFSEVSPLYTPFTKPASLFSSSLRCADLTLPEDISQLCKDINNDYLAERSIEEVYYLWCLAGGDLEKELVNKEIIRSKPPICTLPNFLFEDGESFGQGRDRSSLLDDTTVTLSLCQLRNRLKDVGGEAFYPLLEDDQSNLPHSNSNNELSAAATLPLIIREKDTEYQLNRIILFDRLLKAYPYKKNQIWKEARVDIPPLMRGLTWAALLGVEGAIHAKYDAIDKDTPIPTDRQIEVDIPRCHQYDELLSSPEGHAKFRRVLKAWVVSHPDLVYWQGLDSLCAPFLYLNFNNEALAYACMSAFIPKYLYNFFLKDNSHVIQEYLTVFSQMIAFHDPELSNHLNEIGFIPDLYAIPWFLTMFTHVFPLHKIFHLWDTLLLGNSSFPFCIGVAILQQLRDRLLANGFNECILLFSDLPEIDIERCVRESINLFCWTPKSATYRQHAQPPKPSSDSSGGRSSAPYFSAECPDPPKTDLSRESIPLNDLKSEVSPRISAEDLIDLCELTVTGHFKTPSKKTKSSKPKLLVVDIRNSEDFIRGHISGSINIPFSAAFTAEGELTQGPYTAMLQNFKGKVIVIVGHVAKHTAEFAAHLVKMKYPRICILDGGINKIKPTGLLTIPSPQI
The experiment in a line: mass photometry.
On to B1, for which the binding entry was “binds”.

The next assay has as its target GST-Rab11. Nature of the assay: pull-down.
B2: the binding entry was “no binding”.

Regarding B3, the binding result is “no binding”.

With B4, the binding entry was “no binding”.

With B5, the binding result is recorded as “no binding”.

A further assay has as its target GST-Rab4. Nature of the assay: pull-down.
For the molecule B2, the binding result was “no binding”.

Consider B3, for which the binding entry is given as “no binding”.

For B4, the binding entry was “no binding”.

As to B5, the binding entry was “no binding”.

The next assay has as its target GST-Rab7. The experiment in a line: pull-down.
Take B2: the binding result was “no binding”.

As for B3, the binding entry was “no binding”.

Take B4: the binding result is “no binding”.

As for B5, the binding result was “no binding”.

The target of another assay is GST-Rab11. The experiment in a line: pull-down. This is another data set of the same source.
For the molecule B2, the binding result is on record as “no binding”.

As to B3, the binding result is recorded as “no binding”.

As to B4, the binding result is given as “no binding”.

B5: the binding result is on record as “no binding”.

A further assay has as its target GST-Rab4. Nature of the assay: pull-down. The source holds these as a separate data set.
As for B2, the binding entry is on record as “no binding”.

As for B3, the binding result was “no binding”.

Consider B4, for which the binding result is listed as “no binding”.

As to B5, the binding entry is “no binding”.

The next assay has as its target GST-Rab7. Nature of the assay: pull-down. The source holds these as a separate data set.
Consider B2, for which the binding result is “no binding”.

B3: the binding entry is reported as “no binding”.

Consider B4, for which the binding result was “no binding”.

For the molecule B5, the binding entry is reported as “no binding”.

The target of the next assay is Ppp1r21 (Fy-2) from bovine brain cytosol (bovine (endogenous in bovine brain cytosol)). The experiment in a line: SEC + other: anion exchange chromatography.
Take B6: the binding result is given as “binds”.

For a further assay, the target named is T2, GST-Fy-2 (Ppp1r21) (human) (UniProt Q6ZMI0).
T2 sequence: B5 chain
The experiment in a line: pull-down.
Turning to B1, the binding result is reported as “binds”.
